{"source": "paper PMC4357727", "assay_in_all_cases": "SEC; Rat1/Rai1/Rtt103 and rat1EDD/Rai1/Rtt103 complexes purified by affinity and ion-exchange chromatography (Tris-HCl pH 7.6), then Superose 6 in 25 mM Tris-HCl pH 7.6, 80 mM NaCl, 1 mM DTT, 1 mM MgCl2, 10% glycerol; elution profiles compared", "key": {"[1]": {"biological_target": "T1, rat1EDD/Rai1 complex (S. cerevisiae) (UniProt Q02792+P53063)", "T1 sequence 1": "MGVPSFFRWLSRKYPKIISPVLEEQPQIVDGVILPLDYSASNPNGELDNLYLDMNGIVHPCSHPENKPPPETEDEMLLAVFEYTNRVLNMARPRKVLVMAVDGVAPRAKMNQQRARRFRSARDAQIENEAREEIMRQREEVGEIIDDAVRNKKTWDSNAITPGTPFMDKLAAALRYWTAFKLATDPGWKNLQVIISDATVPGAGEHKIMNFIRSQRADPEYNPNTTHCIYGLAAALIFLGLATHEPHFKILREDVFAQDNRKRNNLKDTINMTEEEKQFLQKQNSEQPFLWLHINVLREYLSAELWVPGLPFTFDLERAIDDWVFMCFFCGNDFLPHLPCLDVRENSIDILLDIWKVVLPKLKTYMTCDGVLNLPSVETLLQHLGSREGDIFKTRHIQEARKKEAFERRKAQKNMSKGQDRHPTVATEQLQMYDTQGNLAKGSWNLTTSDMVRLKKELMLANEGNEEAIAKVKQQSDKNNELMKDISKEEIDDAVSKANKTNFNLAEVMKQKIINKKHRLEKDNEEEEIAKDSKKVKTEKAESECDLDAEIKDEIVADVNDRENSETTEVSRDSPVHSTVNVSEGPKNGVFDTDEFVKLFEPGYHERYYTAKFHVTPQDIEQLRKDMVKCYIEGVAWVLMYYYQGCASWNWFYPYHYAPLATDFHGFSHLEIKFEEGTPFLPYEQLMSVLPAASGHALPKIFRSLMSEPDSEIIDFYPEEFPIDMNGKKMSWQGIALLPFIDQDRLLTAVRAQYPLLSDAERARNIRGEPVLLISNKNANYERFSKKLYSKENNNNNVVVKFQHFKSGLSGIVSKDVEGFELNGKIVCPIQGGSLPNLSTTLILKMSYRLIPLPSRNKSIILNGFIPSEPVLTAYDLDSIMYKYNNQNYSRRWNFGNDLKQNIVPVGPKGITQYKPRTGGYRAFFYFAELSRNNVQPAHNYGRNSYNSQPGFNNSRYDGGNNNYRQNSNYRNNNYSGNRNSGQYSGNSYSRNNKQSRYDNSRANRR", "T1 sequence 2": "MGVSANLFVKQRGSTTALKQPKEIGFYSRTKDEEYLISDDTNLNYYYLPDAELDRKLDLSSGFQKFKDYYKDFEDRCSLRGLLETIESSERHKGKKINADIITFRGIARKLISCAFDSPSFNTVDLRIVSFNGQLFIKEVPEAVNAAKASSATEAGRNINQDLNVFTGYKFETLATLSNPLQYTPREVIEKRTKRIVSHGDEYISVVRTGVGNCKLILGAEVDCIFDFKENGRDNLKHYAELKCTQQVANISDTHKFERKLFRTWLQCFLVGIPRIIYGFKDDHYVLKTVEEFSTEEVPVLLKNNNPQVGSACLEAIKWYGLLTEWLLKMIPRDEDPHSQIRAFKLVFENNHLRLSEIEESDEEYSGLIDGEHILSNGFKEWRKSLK"}, "[2]": {"biological_target": "T2, Rat1/Rai1 complex (S. cerevisiae) (S. cerevisiae) (UniProt Q02792+P53063)", "T2 sequence 1": "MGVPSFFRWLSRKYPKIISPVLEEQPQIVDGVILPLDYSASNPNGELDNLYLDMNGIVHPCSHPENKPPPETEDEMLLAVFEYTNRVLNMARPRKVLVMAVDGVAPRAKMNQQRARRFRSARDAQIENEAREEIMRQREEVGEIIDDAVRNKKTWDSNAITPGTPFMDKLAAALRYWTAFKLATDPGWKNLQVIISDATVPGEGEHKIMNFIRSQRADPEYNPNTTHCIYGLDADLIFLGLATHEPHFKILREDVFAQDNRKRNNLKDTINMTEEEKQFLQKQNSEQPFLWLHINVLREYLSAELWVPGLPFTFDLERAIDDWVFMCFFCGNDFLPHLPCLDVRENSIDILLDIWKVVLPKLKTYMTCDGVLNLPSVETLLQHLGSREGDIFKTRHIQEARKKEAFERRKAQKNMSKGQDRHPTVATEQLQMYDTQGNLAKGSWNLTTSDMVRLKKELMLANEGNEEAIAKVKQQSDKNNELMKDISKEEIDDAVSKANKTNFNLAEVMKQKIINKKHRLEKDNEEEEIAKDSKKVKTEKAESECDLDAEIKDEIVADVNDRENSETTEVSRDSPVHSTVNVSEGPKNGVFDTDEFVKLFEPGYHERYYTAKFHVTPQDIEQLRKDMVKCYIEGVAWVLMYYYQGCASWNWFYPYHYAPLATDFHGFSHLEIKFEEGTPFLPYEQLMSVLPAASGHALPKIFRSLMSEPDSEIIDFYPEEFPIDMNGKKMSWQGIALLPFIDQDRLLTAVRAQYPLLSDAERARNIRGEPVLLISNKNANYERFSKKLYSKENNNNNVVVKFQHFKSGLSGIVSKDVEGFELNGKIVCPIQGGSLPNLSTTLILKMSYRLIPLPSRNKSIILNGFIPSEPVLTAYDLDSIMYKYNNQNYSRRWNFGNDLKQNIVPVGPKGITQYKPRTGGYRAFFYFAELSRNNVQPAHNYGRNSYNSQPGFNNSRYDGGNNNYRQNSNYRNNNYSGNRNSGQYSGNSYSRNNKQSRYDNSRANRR", "T2 sequence 2": "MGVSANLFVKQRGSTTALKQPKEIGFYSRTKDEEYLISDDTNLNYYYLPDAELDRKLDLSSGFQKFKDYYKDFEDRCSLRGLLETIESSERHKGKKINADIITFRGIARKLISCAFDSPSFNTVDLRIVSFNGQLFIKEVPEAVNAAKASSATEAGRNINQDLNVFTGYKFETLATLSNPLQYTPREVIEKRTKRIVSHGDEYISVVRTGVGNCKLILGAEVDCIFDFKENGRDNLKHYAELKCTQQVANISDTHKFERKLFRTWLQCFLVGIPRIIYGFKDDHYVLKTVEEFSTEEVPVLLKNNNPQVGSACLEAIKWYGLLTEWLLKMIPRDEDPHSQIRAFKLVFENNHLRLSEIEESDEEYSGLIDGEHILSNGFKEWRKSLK"}, "[3]": {"biological_target": "T3, Rat1 (S. cerevisiae 5'-3' exoribonuclease) (S. cerevisiae) (UniProt Q02792)", "T3 sequence": "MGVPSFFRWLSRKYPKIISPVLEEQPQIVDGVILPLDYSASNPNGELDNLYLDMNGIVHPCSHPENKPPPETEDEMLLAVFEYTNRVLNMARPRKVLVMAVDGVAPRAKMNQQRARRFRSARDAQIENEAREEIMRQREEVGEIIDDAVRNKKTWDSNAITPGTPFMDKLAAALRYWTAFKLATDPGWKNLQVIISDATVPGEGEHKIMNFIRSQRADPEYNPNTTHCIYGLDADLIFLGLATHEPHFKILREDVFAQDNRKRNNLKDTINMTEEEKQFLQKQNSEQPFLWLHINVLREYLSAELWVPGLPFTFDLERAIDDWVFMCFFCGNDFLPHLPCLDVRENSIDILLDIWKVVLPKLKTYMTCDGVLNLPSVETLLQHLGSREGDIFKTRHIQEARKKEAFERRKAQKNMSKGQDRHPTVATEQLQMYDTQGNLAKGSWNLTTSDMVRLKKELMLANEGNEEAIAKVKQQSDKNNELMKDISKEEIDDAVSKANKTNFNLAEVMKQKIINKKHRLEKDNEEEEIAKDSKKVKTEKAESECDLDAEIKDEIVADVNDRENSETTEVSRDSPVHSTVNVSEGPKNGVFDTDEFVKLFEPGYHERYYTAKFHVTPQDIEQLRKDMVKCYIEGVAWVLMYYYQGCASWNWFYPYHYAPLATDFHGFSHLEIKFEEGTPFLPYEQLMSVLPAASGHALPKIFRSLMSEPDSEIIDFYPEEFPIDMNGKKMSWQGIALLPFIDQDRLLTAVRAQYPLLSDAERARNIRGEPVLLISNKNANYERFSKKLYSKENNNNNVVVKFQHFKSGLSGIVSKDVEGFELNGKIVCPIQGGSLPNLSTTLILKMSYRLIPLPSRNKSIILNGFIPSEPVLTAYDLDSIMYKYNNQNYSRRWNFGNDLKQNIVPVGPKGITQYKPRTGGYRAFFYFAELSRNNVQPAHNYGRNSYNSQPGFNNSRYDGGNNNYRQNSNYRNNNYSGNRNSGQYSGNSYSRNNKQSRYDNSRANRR"}, "[4]": {"biological_target": "T4, rat1 E203A/D233A/D235A (rat1EDD), catalytically inactive Rat1 (S. cerevisiae) (UniProt Q02792)", "T4 sequence": "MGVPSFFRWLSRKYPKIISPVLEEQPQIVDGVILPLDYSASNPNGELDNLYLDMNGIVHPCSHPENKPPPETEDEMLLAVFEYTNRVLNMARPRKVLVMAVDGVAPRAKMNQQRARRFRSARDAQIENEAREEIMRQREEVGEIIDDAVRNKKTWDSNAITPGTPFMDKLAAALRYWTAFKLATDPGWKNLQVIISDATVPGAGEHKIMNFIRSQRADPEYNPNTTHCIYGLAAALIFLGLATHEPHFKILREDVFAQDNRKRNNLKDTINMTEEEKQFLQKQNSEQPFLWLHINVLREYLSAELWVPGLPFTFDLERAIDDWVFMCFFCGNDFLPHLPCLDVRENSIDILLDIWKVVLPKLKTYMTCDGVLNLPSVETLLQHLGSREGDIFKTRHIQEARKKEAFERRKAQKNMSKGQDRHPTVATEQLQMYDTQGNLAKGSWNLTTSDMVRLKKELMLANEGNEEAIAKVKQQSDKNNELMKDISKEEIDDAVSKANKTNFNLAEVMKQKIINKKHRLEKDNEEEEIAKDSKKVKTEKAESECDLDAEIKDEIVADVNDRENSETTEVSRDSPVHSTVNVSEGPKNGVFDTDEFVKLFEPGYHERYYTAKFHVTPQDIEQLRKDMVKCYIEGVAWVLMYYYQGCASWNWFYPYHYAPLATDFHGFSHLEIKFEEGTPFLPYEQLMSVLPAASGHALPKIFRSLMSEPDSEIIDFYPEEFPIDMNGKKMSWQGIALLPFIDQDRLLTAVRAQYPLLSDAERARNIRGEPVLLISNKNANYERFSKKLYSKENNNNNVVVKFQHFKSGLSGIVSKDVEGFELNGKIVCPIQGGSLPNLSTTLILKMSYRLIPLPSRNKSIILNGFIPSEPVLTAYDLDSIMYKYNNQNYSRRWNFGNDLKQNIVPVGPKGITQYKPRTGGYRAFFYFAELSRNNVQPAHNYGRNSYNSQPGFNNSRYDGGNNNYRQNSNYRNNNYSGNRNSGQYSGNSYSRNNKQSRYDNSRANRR"}}, "note": "Results are given in words; binding and its absence hold for the method and conditions named. Some results given as binding are weak or reduced against the parent protein; the word gives no strength.", "data": [{"binder": "Rtt103 (S. cerevisiae) (protein, UniProt Q05543 1-409) MPFSSEQFTTKLNTLEDSQESISSASKWLLLQYRDAPKVAEMWKEYMLRPSVNTRRKLLGLYLMNHVVQQAKGQKIIQFQDSFGKVAAEVLGRINQEFPRDLKKKLSRVVNILKERNIFSKQVVNDIERSLKTESSPVEALVLPQKLKDFAKDYEKLVKMHHNVCAMKMRFDKSSDELDPSSSVYEENFKTISKIGNMAKDIINESILKRESGIHKLQSTLDDEKRHLDEEQNMLSEIEFVLSAKDPSRLNKNVDEDNIIPTYEVGDGDDDDDDGDNDDDDDDDDDDKNYDDRSNDSNYGVTNISTTDKKNEVVEKTDSEHKNSTHNPSDNQFGMKRTHDMIGHDDANDIPEKKVHLDSKTSEDGTFNSEDGHYELDIEGHVGAQTDEGVENSGGVSSSIQDLLSKLAN", "values": [{"measurement": "binding", "setting": "[1]", "value": "binds weakly"}, {"measurement": "binding", "setting": "[2]", "value": "binds"}, {"measurement": "binding", "setting": "[3]", "value": "binds"}, {"measurement": "binding", "setting": "[4]", "value": "binds weakly"}]}]}
